Assay results from the supplement of paper PMC12823440, “Inhibitors supercharge kinase turnover through native proteolytic circuits” (Nature, 2025).
This is one part of the list. The calls rarely recur for the same compound in another form.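 Kinases were expressed as nanoluciferase fusions in K562 cells and luminescence was read every 4 h between 2 and 18 h as percent of control, DMSO set to 100% and a positive control to 0%. A time point counts as decreased when the signal drops significantly (2 sigma). The hit call is the authors' own, does not follow from the count of time points alone, and its rule is not shown.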

Sequences of proteins named here, by UniProt entry; tags and fusion partners are left off. A change or cut given only in a name is not applied to a line headed by its entry.
UniProt P53671: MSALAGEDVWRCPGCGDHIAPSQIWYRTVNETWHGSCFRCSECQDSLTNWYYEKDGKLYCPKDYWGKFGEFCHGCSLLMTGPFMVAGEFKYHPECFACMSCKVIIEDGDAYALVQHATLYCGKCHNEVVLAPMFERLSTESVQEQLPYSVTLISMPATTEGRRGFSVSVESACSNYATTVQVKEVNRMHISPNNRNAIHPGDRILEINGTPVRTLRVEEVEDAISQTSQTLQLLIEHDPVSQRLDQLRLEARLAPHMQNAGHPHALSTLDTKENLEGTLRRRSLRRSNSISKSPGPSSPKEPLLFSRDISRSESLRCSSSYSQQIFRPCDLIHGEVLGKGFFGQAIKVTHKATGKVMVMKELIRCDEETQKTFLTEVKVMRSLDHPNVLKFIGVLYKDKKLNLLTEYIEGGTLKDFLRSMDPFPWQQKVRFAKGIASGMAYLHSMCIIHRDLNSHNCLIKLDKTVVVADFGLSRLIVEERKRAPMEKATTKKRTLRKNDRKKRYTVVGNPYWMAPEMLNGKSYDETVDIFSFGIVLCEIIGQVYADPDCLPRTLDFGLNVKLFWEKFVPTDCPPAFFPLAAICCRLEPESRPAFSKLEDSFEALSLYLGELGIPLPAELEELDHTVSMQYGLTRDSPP

target: LIMK2 (UniProt P53671); experiment: kinase-Nluc reporter destabilization hit call (1 = scored as downregulated) (binary); higher = compound decreases kinase abundance; conditions: K562; 2-18 h

kinase-Nluc reporter destabilization hit call, inactive:
O=C(O)c1cc(N(Cc2ccccc2O)Cc2ccccc2O)ccc1O [Lavendustin B] (10 µM) 0, Cc1cnc(NC2CCOCC2)nc1-n1cnc(C(=O)N[C@H](CN)c2cc(F)cc(Cl)c2)c1 (10 µM) 0, Cn1ncc2cc(-c3cnc(N)c(Cl)c3N3CCC4(CCNC4=O)CC3)ccc21 (10 µM) 0, CC(C)c1cccc(C(C)C)c1N1C(=O)c2ccc(N)cc2C1=O (2.5 µM) 0, CC[C@@](C)(Nc1ccnc(-c2c[nH]c3ncccc23)n1)C(=O)NCC(F)(F)F [Decernotinib] (10 µM) 0, NC1=NCCN1CC(=O)O [Cyclocreatine] (10 µM) 0, Nc1c(C(=O)NCc2ccc(C(=O)NCCCC3CCCCC3)cc2)cnn1-c1ccccc1 (2.5 µM) 0, C[C@H](Nc1ncnc2nc[nH]c12)c1cc2cccc(Cl)c2c(=O)n1-c1ccccc1 [Duvelisib] (10 µM) 0, Cc1cc(Nc2nc(CC3(C(=O)O)CCN(C(=O)c4cccc(Cl)c4Cl)CC3)ccc2F)n[nH]1 (10 µM) 0, C[C@@H]1O[C@@H](O[C@@H]2[C@@H](O)[C@H](OCCc3ccc(O)c(O)c3)O[C@H](CO)[C@H]2OC(=O)/C=C/c2ccc(O)c(O)c2)[C@H](O)[C@H](O)[C@H]1O [Verbascoside] (10 µM) 0, O=C1/C(=C\c2ccc(Cl)cc2)C=C(c2ccccc2)N1c1ccc(O)cc1 (2.5 µM) 0, Nc1nccc(Oc2ccc(NC(=O)c3c[nH]cc(-c4ccc(F)cc4)c3=O)cc2F)c1Cl (10 µM) 0, COc1ccc(-c2c(C)nn3c(NCCN4CCOCC4)cc(C)nc23)cc1OC (10 µM) 0, O=C1NC(=O)C(c2cnc3ccccn23)=C1c1cn2c3c(cc(F)cc13)CNCC2 [GSK-3 inhibitor 1] (2.5 µM) 0, CCCCCCCC/C=C\CCCCCCCCCCCC(=O)O [Erucic acid] (10 µM) 0, O=C(Nc1nc2ccccc2[nH]1)c1cccc([N+](=O)[O-])c1 [IRAK-4 protein kinase inhibitor 2] (10 µM) 0, Cc1cccc(-c2[nH]c(C(C)(C)C)nc2-c2ccc3nccnc3c2)n1 (10 µM) 0, C[C@@H]1CC(=O)c2c(ccc3c2C(=O)c2cccc(O)c2C3=O)C1 [Ochromycinone] (10 µM) 0, CN1C(=O)[C@@H](NC(=O)c2n[nH]c(Cc3ccccc3)n2)COc2ccccc21 (10 µM) 0, CCc1cccc(CC)c1NC(=O)N1Cc2[nH]nc(NC(=O)c3ccc(N4CCN(C)CC4)cc3)c2C1 (2.5 µM) 0, COc1ccc(N=Nc2c(N)n[nH]c2N)cc1 (10 µM) 0, Cc1ccc(NC(=O)c2ccnc(C(F)(F)F)c2)cc1-c1cc(OCCO)nc(N2CCOCC2)c1 (10 µM) 0, CC(C)(O)[C@H]1CC[C@H](Nc2ccc3ncc(-c4cccc(C(F)(F)F)c4)n3n2)CC1 (10 µM) 0, CCn1c(=O)c(-c2cc[nH]n2)cc2c(C)nc(N)nc21 [Voxtalisib] (10 µM) 0, C[C@H](NC(=O)[C@H]1NCC[C@@H]1O)c1ccc(-c2noc(CCC3CCCC3)n2)cc1 (10 µM) 0, O=C1O[C@H]([C@@H](O)CO)C(O)=C1OP(=O)(O)O [2-Phospho-L-ascorbic acid (trisodium)] (10 µM) 0, Cn1cnc([N+](=O)[O-])c1C[N+](C)(C)C/C=C/C(=O)Nc1cc2c(Nc3ccc(Cl)c(Br)c3)ncnc2cn1 [Tarloxotinib (bromide)] (10 µM) 0, CC1(C)Cc2c(sc(NC(=S)NC(=O)c3ccccc3)c2C(=O)O)CO1 (10 µM) 0, CCCCCCCCCCCCCCCCOP(=O)([O-])OCC[N+](C)(C)C [Miltefosine] (10 µM) 0, N#CC(c1ccnc(OCc2ccc(CN3CCOCC3)cc2)n1)c1nc2ccccc2s1 (stereo not drawn) [Bentamapimod] (2.5 µM) 0, Cc1cnc(-c2ccc(-c3ccc(NC(=O)Nc4cccc(C(F)(F)F)c4)cc3F)c3c2C(=O)NC3)[nH]1 (10 µM) 0, CC(C)=CC(=O)O[C@H]1Cc2cc3ccc(=O)oc3cc2OC1(C)C [Decursin] (10 µM) 0, O=C(N[C@@H](C1CC1)C(F)(F)F)c1cc(-c2cnn3cc(-c4ccc(F)cc4)cnc23)cs1 (10 µM) 0, CNc1cc(Nc2cccn(-c3ccccn3)c2=O)nn2c(C(=O)N[C@@H]3C[C@@H]3F)cnc12 (2.5 µM) 0, CS(=O)(=O)c1ccc(-c2cnc(N)c(-c3ccc(C(F)(F)F)nc3)c2)cc1 (10 µM) 0, CN(c1ccc(NC(=O)Nc2ccc(OC(F)(F)F)cc2)cc1)c1ccnc(Nc2cccc(S(N)(=O)=O)c2)n1 (2.5 µM) 0, Cc1ccc2c(Nc3cccc(Cl)c3F)nccc2c1NC(=O)c1csc2c(N)ncnc12 [Belvarafenib] (10 µM) 0, COc1nn(C)cc1Nc1nccc(-c2c[nH]c3c(NC(=O)[C@@H](C)N4CCN(C)CC4)cccc23)n1 (10 µM) 0
